## Library screening results

Data taken from ChEMBL document CHEMBL3988442, “University of Dundee, Small-Polar-MMV Screening Library” (2021).

Values are the deposited “Percent Effect”, in %.
How 0% and 100% were set is not recorded. Most values in the screen are low, and negative values occur.
The compounds are a random part of those screened.
A dash means the value is not listed here; it may have been measured.

A: 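Whole-cell assay for inhibitors of Mycobacterium tuberculosis growth, labelled Cornell in the record; the read-out is not stated. The concentration is filed as 10 mM, unlikely as a test dose, so the dose is not known. Higher means stronger inhibition (inferred from two other growth screens of the library). Size under these conditions: about 53,000 compounds, about 900 of them at 50% or above in at least one test.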
B: 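Assay on Mycobacterium tuberculosis, filed only as a heat shock assay from Cornell; the read-out is not stated. The concentration is filed as 10 mM, unlikely as a test dose, so the dose is not known. The record gives no direction; compounds that gave an IC50 in retests scored well above the rest, so higher reads as stronger inhibition. Size under these conditions: about 69,000 compounds, about 930 of them at 50% or above in at least one test.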

| # | Compound | A | B |
|---|---|---|---|
| 1 | `CN(C)C(=O)Cn1ccc2cc(NC(=O)N3CCOCC3)ccc21` | - | -11.71 |
| 2 | `O=C(Cc1ccc2c(c1)OCC2)Nc1nn[nH]n1` | -65.3 | -1.542 |
| 3 | `Cc1ccc(C(=O)N2CCSCC2)cc1NC(=O)Cn1cncn1` | -0.9385 | -14.49 |
| 4 | `Cc1nc(C2CCCN2CC(=O)Nc2c(C)nn(C)c2C)no1` (stereo not drawn) | -0.1 | -19.29 |
| 5 | `O=C(O)C(F)(F)F.O=C(O)C(F)(F)F.c1csc(CN2Cc3nc(CN4CCCC4)oc3C2)c1` | 23.42 | -15.96 |
| 6 | `Cl.c1csc(-c2noc(C3CCCNC3)n2)c1` (stereo not drawn) | 9.745 | 1.661 |
| 7 | `CN(CCN1CCCCC1)C(=O)c1cc(CN2CCOCC2)on1` | -60.92 | -16.72 |
| 8 | `Cc1ccc(NC(=O)CNC(C)CN2CCCCC2)c(F)c1` (stereo not drawn) | 6.341 | -22.05 |
| 9 | `COCCCNC(=O)CN(C)C(=O)c1ccc(OC)cc1O` | - | -0.1779 |
| 10 | `O=C(c1ccccc1)N1CCCN(C(=O)c2ncncc2Cl)CC1` | - | -10.93 |
| 11 | `NC(=O)c1cnn2c(C3CCCN(C4CCOCC4)C3)ccnc12` (stereo not drawn) | 18.98 | -6.03 |
| 12 | `Cc1cc(C)nc(NC2CCOC3(CCCC3)C2)n1` (stereo not drawn) | 27.04 | -11.05 |
| 13 | `CC(C)N1CCC(N2CCCC(C(=O)NCC3(O)CCCCC3)C2)CC1` (stereo not drawn) | - | -32.92 |
| 14 | `COc1c(C2SCC(=O)Nc3[nH]ncc32)cc2c(c1OC)OCO2` (stereo not drawn) | 39.84 | 8.593 |
| 15 | `CCOC(=O)c1sc(NC(=O)c2cc(=O)c(OC)c[nH]2)nc1C` | 17.97 | 36.93 |
| 16 | `CCC(=O)N1C[C@@H](C(=O)NC)[C@H](c2ccnc(N3CCCC3)n2)C1.Cl` | 24.83 | -11.96 |
| 17 | `Cc1ccccc1C(=O)NC1CCN(c2cnn(C)c2)C1=O` (stereo not drawn) | - | 4.664 |
| 18 | `COc1ccc2c(CN3CCN(Cc4cccc(F)c4)CC3)n[nH]c2c1` | 27.57 | -4.409 |
| 19 | `O=C(O)C(F)(F)F.[H][C@@]12CCN(Cc3ccco3)C[C@]1(C(=O)NC(C)C)CCO2` | -4.005 | 23.51 |
| 20 | `Cc1ccc(F)c(OC2(C(=O)O)CCN(C(=O)c3ccncc3)CC2)c1` | -8.644 | -32.03 |
| 21 | `Nc1nccnc1C(=O)NCCCNc1ccc(C(F)(F)F)cn1` | - | 4.586 |
| 22 | `O=C(NC1=NCCCN1c1ccc(Cl)cc1)c1cccc(Cl)c1` | 27.1 | 0.9052 |
| 23 | `CN(C)Cc1cc(=O)n2c(n1)CN(Cc1ccco1)CCC2` | 5.285 | 8.53 |
| 24 | `COCCN1CC[C@@H](OC)[C@@H]1Cc1ccccc1.O=C(O)C(F)(F)F` | 7.83 | 2.759 |
| 25 | `CC(C)(C)NC(=O)CNc1ncccn1` | - | 9.378 |
| 26 | `O=C(O)C(F)(F)F.[H][C@@]12CCCO[C@]1([H])[C@H](NC(=O)c1nccn1C)CN2Cc1ccc(F)cc1` | 7.714 | -3.047 |
| 27 | `CCOCCCNc1nc(O)cc(C2CC(=O)N(C)C2)n1` (stereo not drawn) | -11.71 | -17.73 |
| 28 | `Cc1nc(C2CCCN(c3ncc(Br)cn3)C2)no1` (stereo not drawn) | 1.777 | 0.6378 |
| 29 | `O[C@@H]1CN(Cc2cccnc2)C[C@H]1Oc1ccccc1` | 3.388 | -6.962 |
| 30 | `CN(C)C(=O)c1ccn(-c2ccc3ccccn23)n1` | 12.61 | 10.48 |
| 31 | `C=C(C)Cn1nnc(C2(NC(=O)c3ccccc3)CCCC2)n1` | -33.45 | -18.09 |
| 32 | `COC(=O)CC1c2cccnc2C(=O)N1Cc1ccccc1` (stereo not drawn) | 10.52 | -11.24 |
| 33 | `N#Cc1cccc(N2CC3(CCN(C(=O)c4cccnc4)C3)CC2=O)c1.O=C(O)C(F)(F)F` (stereo not drawn) | 1.679 | 1.869 |
| 34 | `Cl.O=C(Nc1nc2c(s1)CNCC2)NC1CCCC1` | -23.63 | 102.9 |
| 35 | `O=C(N1CCCC(n2cncn2)C1)C1(c2ccccc2F)CCCC1` (stereo not drawn) | -3.568 | 13.04 |
| 36 | `Cc1ccc(NC(=O)CNc2ccccc2C(N)=O)c(C)c1` | -11.67 | 13.38 |
| 37 | `CN1CCN(c2cc(CCNC(=O)C3CCC3)nc(C3CC3)n2)CC1` | 16.3 | -1.668 |
| 38 | `CCc1ncncc1C(=O)N1CCN(Cc2c(C)noc2C)CC1` | 24.65 | 21.4 |
| 39 | `CCS(=O)(=O)N1CCC2(CCN(CC(=O)N(C)C)C2=O)CC1` | -9.354 | -9.849 |
| 40 | `CN(C)CCOCc1nnc2n1CCN(Cc1cccs1)CC2.O=C(O)C(F)(F)F.O=C(O)C(F)(F)F` | -3.825 | -18.18 |
| 41 | `Cc1c(C)n(Cc2ccncc2)c2nc3c(c(N)c12)CCCCC3` | - | 32.27 |
| 42 | `OCC1(CNC2CCc3cc4c(cc32)OCCO4)CC1` (stereo not drawn) | 7.225 | -11.76 |
| 43 | `FC(F)(F)c1ccc2nc([C@H]3CCN(C4CCCCC4)C3)[nH]c2c1` | - | 60.59 |
| 44 | `COCCN1CCN(C(=O)C[C@@H]2C[C@@H](C(C)C)[C@H](CC#N)C=C2C)CC1` | - | -15.76 |
| 45 | `CC(C)n1nnc(CC(=O)NCC2(c3ccccc3F)CCOCC2)n1` | 11.67 | 2.007 |
| 46 | `COc1ccc(C(O)CN2CC(n3nc(C)cc3C)C2)cc1` (stereo not drawn) | - | 35.96 |
| 47 | `COC1COC2(CCN(c3ccc(C#N)cc3)CC2)C1.O=C(O)C(F)(F)F` (stereo not drawn) | 5.426 | 0.4386 |
| 48 | `Cc1nc(C2CCCN2C(=O)c2ccc(N(C)C)nn2)no1` (stereo not drawn) | - | -11.8 |
| 49 | `Cc1[nH]c(-c2ccccc2)nc1C(=O)N1CCC2(CCCO2)CC1` | 3.472 | -9.805 |
| 50 | `CCC(CO)N(Cc1ccco1)C(=O)c1cccc(C)c1O` (stereo not drawn) | - | -2.509 |
| 51 | `Cc1cc(C)n(C2CN(CC(=O)N(C)Cc3cnn(C)c3)C2)n1` | -6.291 | 4.801 |
| 52 | `Cc1nnc(CN(Cc2cccc(Cl)c2)C(C)C)o1` | - | 4.227 |
| 53 | `CC(C)COC(C)C(=O)NCc1ccccc1Cn1ccnc1` (stereo not drawn) | - | 7.045 |
| 54 | `O=C(NC1CCN(c2cccc(OC(F)(F)F)c2)C1=O)C1CCC1` (stereo not drawn) | 1.021 | -19.36 |
| 55 | `Cc1csc(N2CCN(CC(=O)NCc3ccccn3)CC2C)n1` (stereo not drawn) | - | 18.86 |
| 56 | `CN(Cc1cccc(O)c1)C(=O)Nc1cccnc1N1CCCC1` | -47.6 | -12.26 |
| 57 | `CN(Cc1cc(C2CC2)[nH]n1)C(=O)C(c1cccnc1)N1CCCC1` (stereo not drawn) | -12 | 15.65 |
| 58 | `COc1ccc(C(C)N(C)Cc2nc3c(cnn3C)c(=O)[nH]2)cc1` (stereo not drawn) | - | 34.72 |
| 59 | `Cc1ncsc1C(=O)N1CCc2[nH]nc(-c3ccc4c(c3)OCO4)c2C1` | -27.78 | -1.814 |
| 60 | `O=C(CCn1cncn1)NCC1CCOC1` (stereo not drawn) | 17.28 | 15.55 |
| 61 | `COc1ccc(CC(C)(O)CNC(=O)c2cccs2)cc1` (stereo not drawn) | 12.09 | 20.88 |
| 62 | `[H][C@@]12CCN(c3ccc(C)nn3)C[C@]1(C(=O)N(C)C)CCO2` | - | 0.2954 |
| 63 | `CCCOc1cccc(C(=O)Oc2cc(=O)n3cccc(C)c3n2)c1` | 34.58 | 1.989 |
| 64 | `O=C(O)C(F)(F)F.c1ccc(-c2ccc3nc(C4CCN(CC5CC5)CC4)nn3c2)cc1` | 27.95 | -17.03 |
| 65 | `COCC1c2c(cnn2CC2CC2)CCN1Cc1ccc(OC)cc1` (stereo not drawn) | 4.952 | -4.686 |
| 66 | `CC(=O)NCc1nccnc1C1CCN(C(=O)c2cc[nH]n2)CC1` | 3.612 | 1.808 |
| 67 | `CCC(O)Cn1nc(-c2ccc(C(=O)O)cc2)cc1-c1cccc(F)c1` (stereo not drawn) | -3.821 | -9.177 |
| 68 | `CCCc1noc(CCCC(=O)N2CCCC2c2cnn(C)c2)n1` (stereo not drawn) | - | -10.83 |

Repeated from the top, 8 entries:

{"compound": "CN(C)C(=O)Cn1ccc2cc(NC(=O)N3CCOCC3)ccc21", "B": -11.71}
{"compound": "O=C(Cc1ccc2c(c1)OCC2)Nc1nn[nH]n1", "A": -65.3, "B": -1.542}
{"compound": "Cc1ccc(C(=O)N2CCSCC2)cc1NC(=O)Cn1cncn1", "A": -0.9385, "B": -14.49}
{"compound": "Cc1nc(C2CCCN2CC(=O)Nc2c(C)nn(C)c2C)no1", "stereo": "stereo not drawn", "A": -0.1, "B": -19.29}
{"compound": "O=C(O)C(F)(F)F.O=C(O)C(F)(F)F.c1csc(CN2Cc3nc(CN4CCCC4)oc3C2)c1", "A": 23.42, "B": -15.96}
{"compound": "Cl.c1csc(-c2noc(C3CCCNC3)n2)c1", "stereo": "stereo not drawn", "A": 9.745, "B": 1.661}
{"compound": "CN(CCN1CCCCC1)C(=O)c1cc(CN2CCOCC2)on1", "A": -60.92, "B": -16.72}
{"compound": "Cc1ccc(NC(=O)CNC(C)CN2CCCCC2)c(F)c1", "stereo": "stereo not drawn", "A": 6.341, "B": -22.05}